Reference: publication PMC10586200
Results are given in words; binding and its absence hold for the method and conditions named. Binding seen in cells or lysates may run through a third protein. Some binding calls cover weakened binding; strength is not graded here. Where a sequence is shown, tags or fusion partners need not be part of it.

T1: Strep-FLAG-tagged full-length IFT74 (human) (UniProt Q96LB3)
T1 sequence: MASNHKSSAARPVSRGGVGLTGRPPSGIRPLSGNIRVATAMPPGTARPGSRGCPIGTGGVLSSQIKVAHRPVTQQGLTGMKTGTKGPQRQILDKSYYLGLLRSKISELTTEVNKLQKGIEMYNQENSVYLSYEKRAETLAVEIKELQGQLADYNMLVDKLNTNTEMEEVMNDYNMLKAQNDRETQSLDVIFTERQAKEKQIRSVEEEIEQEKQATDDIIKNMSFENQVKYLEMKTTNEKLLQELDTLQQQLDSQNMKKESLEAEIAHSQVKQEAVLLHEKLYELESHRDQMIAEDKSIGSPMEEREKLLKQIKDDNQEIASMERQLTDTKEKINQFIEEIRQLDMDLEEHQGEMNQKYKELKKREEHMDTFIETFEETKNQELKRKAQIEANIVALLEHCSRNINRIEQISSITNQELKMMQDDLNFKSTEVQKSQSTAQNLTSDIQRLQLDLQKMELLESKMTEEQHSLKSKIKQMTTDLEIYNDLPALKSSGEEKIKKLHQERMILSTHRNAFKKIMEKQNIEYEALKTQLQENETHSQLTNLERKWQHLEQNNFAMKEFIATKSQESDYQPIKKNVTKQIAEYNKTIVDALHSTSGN

B1: IFT81 (protein, UniProt Q8WYA0 1-676)
chain: MSDQIKFIMDSLNKEPFRKNYNLITFDSLEPMQLLQVLSDVLAEIDPKQLVDIREEMPEQTAKRMLSLLGILKYKPSGNATDMSTFRQGLVIGSKPVIYPVLHWLLQRTNELKKRAYLARFLIKLEVPSEFLQDETVADTNKQYEELMEAFKTLHKEYEQLKISGFSTAEIRKDISAMEEEKDQLIKRVEHLKKRVETAQNHQWMLKIARQLRVEKEREEYLAQQKQEQKNQLFHAVQRLQRVQNQLKSMRQAAADAKPESLMKRLEEEIKFNLYMVTEKFPKELENKKKELHFLQKVVSEPAMGHSDLLELESKINEINTEINQLIEKKMMRNEPIEGKLSLYRQQASIISRKKEAKAEELQEAKEKLASLEREASVKRNQTREFDGTEVLKGDEFKRYVNKLRSKSTVFKKKHQIIAELKAEFGLLQRTEELLKQRHENIQQQLQTMEEKKGISGYSYTQEELERVSALKSEVDEMKGRTLDDMSEMVKKLYSLVSEKKSALASVIKELRQLRQKYQELTQECDEKKSQYDSCAAGLESNRSKLEQEVRRLREECLQEESRYHYTNCMIKNLEVQLRRATDEMKAYISSDQQEKRKAIREQYTKNTAEQENLGKKLREKQKVIRESHGPNMKQAKMWRDLEQLMECKKQCFLKQQSQTSIGQVIQEGGEDRLIL
B2: IFT88 (protein, UniProt Q13099 1-824)
chain: MMQNVHLAPETDEDDLYSGYNDYNPIYDIEELENDAAFQQAVRTSHGRRPPITAKISSTAVTRPIATGYGSKTSLASSIGRPMTGAIQDGVTRPMTAVRAAGFTKAALRGSAFDPLSQSRGPASPLEAKKKDSPEEKIKQLEKEVNELVEESCIANSCGDLKLALEKAKDAGRKERVLVRQREQVTTPENINLDLTYSVLFNLASQYSVNEMYAEALNTYQVIVKNKMFSNAGILKMNMGNIYLKQRNYSKAIKFYRMALDQVPSVNKQMRIKIMQNIGVTFIQAGQYSDAINSYEHIMSMAPNLKAGYNLTICYFAIGDREKMKKAFQKLITVPLEIDEDKYISPSDDPHTNLVTEAIKNDHLRQMERERKAMAEKYIMTSAKLIAPVIETSFAAGYDWCVEVVKASQYVELANDLEINKAVTYLRQKDYNQAVEILKVLEKKDSRVKSAAATNLSALYYMGKDFAQASSYADIAVNSDRYNPAALTNKGNTVFANGDYEKAAEFYKEALRNDSSCTEALYNIGLTYEKLNRLDEALDCFLKLHAILRNSAEVLYQIANIYELMENPSQAIEWLMQVVSVIPTDPQVLSKLGELYDREGDKSQAFQYYYESYRYFPCNIEVIEWLGAYYIDTQFWEKAIQYFERASLIQPTQVKWQLMVASCFRRSGNYQKALDTYKDTHRKFPENVECLRFLVRLCTDLGLKDAQEYARKLKRLEKMKEIREQRIKSGRDGSGGSRGKREGSASGDSGQNYSASSKGERLSARLRALPGTNEPYESSSNKEIDASYVDPLGPQIERPKTAAKKRIDEDDFADEELGDDLLPE
B3: IFT46 (protein, UniProt Q9NQC8 1-304)
chain: MADNSSDECEEENNKEKKKTSQLTPQRGFSENEDDDDDDDDSSETDSDSDDDDEEHGAPLEGAYDPADYEHLPVSAEIKELFQYISRYTPQLIDLDHKLKPFIPDFIPAVGDIDAFLKVPRPDGKPDNLGLLVLDEPSTKQSDPTVLSLWLTENSKQHNITQHMKVKSLEDAEKNPKAIDTWIESISELHRSKPPATVHYTRPMPDIDTLMQEWSPEFEELLGKVSLPTAEIDCSLAEYIDMICAILDIPVYKSRIQSLHLLFSLYSEFKNSQHFKALAEGKKAFTPSSNSTSQAGDMETLTFS

Target: T1, Strep-FLAG-tagged full-length IFT74 (human)
Experiment: co-IP; anti-FLAG affinity purification of Strep-FLAG-tagged IFT74 constructs from transfected HEK293 cells, western blotting for IFT81, IFT88 and IFT46; done six times

Row | Binder | binding
1 | B1 | binds
2 | B2 | binds
3 | B3 | binds
